Reference: the supplement of paper PMC12823440, “Inhibitors supercharge kinase turnover through native proteolytic circuits” (Nature, 2025)
Structures can show the parent of a compound that is named as a salt. Some of the results follow. Hit calls seldom repeat between salt and free forms of one compound.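 Kinases were expressed as nanoluciferase fusions in K562 cells and luminescence was read every 4 h between 2 and 18 h as percent of control, DMSO set to 100% and a positive control to 0%. A time point counts as decreased when the signal drops significantly (2 sigma). The hit call is the authors' own, does not follow from the count of time points alone, and its rule is not shown.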

The chains behind the UniProt entries cited, without tags or fusion partners. Where a name states a change or a piece, a line headed by the entry shows the natural chain unless it says otherwise.
UniProt Q15208: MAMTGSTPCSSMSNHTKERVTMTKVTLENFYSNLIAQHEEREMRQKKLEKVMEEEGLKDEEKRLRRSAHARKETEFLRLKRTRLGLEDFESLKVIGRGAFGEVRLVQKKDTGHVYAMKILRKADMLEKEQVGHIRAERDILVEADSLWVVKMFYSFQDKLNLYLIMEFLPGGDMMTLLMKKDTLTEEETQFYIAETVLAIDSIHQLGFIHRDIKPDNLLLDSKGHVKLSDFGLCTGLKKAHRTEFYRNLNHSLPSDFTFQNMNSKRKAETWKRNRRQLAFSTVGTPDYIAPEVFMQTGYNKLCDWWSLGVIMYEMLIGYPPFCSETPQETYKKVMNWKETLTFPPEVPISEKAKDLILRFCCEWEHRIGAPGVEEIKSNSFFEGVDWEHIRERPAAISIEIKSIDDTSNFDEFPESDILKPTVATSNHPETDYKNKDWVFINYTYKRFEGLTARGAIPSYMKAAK
UniProt P42680: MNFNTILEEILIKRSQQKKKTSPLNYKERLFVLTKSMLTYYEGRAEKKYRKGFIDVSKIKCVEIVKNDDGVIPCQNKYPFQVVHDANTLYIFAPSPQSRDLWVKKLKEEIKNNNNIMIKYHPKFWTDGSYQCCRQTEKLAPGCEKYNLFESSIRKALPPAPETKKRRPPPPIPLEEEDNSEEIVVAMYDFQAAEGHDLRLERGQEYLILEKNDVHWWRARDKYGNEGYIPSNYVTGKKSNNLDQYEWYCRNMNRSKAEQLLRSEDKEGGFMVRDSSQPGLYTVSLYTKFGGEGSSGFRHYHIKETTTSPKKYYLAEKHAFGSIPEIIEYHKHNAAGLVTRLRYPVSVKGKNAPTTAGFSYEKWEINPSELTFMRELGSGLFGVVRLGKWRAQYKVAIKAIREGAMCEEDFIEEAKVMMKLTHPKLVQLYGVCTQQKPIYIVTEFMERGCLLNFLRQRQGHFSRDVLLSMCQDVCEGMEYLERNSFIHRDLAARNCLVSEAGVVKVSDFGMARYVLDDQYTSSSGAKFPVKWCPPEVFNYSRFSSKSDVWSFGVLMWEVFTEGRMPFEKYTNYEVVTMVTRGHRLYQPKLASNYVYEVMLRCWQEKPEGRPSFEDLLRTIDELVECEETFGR
UniProt P29597: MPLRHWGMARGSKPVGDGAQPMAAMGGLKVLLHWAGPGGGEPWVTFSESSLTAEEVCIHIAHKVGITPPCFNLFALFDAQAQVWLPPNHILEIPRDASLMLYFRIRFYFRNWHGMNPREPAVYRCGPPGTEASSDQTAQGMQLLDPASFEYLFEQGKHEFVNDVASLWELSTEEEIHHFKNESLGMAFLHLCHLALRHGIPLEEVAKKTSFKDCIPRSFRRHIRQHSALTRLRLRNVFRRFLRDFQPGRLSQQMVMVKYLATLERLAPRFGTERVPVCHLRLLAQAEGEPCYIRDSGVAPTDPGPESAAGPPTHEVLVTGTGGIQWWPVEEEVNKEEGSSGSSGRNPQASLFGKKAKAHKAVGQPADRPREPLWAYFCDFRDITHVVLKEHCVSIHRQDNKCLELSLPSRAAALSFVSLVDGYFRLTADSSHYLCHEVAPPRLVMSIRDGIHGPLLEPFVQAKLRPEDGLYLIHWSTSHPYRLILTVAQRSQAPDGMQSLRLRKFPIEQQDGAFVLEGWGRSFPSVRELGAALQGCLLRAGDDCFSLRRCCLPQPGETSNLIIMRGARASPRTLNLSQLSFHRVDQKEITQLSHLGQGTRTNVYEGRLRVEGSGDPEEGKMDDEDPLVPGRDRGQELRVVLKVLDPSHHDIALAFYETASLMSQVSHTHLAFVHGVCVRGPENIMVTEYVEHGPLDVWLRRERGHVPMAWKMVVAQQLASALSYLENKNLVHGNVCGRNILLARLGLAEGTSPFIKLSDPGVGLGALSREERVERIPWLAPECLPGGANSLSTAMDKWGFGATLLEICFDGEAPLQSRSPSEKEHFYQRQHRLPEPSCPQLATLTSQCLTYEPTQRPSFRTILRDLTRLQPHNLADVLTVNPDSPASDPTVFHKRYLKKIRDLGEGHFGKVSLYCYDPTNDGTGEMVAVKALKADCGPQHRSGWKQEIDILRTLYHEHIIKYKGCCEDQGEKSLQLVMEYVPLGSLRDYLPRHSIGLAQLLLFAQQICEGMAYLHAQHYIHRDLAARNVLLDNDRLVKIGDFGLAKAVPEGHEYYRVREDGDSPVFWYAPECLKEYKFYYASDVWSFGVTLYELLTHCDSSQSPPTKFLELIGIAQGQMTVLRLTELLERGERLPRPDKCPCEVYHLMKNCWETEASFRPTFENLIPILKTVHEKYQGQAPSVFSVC
UniProt Q6PHR2: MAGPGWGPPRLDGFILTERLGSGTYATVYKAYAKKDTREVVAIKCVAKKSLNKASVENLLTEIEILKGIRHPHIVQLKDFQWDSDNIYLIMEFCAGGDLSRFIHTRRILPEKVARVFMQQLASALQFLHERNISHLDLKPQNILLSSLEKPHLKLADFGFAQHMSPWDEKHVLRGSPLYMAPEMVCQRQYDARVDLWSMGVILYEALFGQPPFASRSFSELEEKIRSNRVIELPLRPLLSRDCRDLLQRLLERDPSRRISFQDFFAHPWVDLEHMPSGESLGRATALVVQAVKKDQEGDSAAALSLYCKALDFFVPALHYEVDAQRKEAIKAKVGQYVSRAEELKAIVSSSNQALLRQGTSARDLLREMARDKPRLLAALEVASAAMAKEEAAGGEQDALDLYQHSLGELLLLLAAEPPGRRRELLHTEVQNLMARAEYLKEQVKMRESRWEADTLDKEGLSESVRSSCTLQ
UniProt P07947, whole entry, looked up: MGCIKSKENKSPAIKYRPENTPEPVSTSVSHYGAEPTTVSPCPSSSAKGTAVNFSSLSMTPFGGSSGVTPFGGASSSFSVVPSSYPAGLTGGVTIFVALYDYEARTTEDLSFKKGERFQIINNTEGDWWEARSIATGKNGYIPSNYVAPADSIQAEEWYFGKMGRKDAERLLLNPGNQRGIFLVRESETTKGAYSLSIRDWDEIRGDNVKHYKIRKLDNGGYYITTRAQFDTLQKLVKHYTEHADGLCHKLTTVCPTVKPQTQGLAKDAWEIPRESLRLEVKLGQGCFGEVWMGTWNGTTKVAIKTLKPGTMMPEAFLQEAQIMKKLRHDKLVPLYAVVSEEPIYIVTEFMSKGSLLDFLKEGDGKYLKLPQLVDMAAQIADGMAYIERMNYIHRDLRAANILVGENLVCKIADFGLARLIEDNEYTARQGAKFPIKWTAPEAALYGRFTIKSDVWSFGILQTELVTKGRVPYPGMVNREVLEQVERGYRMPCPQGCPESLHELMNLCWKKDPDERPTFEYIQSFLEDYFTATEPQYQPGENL
UniProt P43403: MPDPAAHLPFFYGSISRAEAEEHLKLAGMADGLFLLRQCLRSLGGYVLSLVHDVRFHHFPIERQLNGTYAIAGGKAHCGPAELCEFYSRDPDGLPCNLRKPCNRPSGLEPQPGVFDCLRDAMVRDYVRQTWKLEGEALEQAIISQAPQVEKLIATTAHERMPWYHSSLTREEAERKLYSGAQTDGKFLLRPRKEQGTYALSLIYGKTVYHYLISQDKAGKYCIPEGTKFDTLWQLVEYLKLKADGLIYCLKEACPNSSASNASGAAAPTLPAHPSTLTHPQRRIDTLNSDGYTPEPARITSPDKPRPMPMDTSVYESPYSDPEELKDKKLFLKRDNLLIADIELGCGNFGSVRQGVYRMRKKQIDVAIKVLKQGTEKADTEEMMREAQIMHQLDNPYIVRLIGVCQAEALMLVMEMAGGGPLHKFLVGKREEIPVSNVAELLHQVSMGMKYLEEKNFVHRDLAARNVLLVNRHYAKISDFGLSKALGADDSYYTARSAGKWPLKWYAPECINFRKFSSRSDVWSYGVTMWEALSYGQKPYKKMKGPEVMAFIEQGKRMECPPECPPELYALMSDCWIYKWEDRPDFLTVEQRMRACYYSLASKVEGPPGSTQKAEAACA
UniProt P00519, whole entry: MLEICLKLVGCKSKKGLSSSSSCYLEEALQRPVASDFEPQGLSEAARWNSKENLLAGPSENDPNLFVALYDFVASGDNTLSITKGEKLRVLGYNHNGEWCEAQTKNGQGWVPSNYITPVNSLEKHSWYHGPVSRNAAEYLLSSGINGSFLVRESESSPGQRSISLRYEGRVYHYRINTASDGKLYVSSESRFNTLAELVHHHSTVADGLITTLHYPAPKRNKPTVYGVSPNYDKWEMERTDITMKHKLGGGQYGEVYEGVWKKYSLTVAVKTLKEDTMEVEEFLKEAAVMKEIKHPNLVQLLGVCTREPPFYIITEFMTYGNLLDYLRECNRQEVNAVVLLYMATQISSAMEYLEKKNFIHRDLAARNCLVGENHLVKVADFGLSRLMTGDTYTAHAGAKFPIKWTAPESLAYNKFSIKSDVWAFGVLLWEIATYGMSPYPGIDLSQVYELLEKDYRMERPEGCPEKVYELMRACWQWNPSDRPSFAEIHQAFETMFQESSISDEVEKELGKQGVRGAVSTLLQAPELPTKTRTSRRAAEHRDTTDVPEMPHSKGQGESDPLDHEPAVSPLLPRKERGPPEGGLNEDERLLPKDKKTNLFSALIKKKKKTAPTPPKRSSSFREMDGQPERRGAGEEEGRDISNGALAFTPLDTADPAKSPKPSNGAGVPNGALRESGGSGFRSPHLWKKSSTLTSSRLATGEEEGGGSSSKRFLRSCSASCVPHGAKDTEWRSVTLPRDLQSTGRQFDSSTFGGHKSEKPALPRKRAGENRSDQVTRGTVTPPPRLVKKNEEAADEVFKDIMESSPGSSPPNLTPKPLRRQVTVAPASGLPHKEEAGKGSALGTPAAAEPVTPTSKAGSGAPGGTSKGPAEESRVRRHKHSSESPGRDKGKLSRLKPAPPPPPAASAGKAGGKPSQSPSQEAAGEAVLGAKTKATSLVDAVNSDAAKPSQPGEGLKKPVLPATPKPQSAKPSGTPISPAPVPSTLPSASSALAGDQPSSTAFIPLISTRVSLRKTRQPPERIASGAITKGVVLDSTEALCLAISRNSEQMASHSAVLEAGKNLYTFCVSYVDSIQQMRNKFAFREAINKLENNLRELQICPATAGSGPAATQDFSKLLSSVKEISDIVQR
UniProt P31749: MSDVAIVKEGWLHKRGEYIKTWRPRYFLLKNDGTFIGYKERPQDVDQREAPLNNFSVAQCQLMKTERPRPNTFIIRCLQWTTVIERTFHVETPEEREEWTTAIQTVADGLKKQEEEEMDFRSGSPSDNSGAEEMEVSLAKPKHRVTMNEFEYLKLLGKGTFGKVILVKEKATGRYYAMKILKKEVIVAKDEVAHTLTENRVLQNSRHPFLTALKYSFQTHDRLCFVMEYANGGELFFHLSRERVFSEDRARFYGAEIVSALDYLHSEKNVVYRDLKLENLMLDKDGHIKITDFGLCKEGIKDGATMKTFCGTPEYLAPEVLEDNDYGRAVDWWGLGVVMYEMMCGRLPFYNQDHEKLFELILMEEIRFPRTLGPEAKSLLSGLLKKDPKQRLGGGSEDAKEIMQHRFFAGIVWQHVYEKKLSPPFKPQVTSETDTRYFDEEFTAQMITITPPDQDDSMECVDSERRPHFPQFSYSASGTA

Tests used:
Settings in all cases: K562; 2-18 h
[1] = biological target: STK38 (UniProt Q15208); assay: kinase-Nluc reporter destabilization hit call (1 = scored as downregulated) (binary); higher = compound decreases kinase abundance
[2] = biological target: SYK (UniProt P43405); assay: as above
[3] = biological target: TEC (UniProt P42680); assay: as above
[4] = biological target: TYK2 (UniProt P29597); assay: as above
[5] = biological target: ULK3 (UniProt Q6PHR2); assay: as above
[6] = biological target: YES1 (UniProt P07947); assay: as above
[7] = biological target: ZAK (UniProt Q9NYL2); assay: as above
[8] = biological target: ZAP70 (UniProt P43403); assay: as above
[9] = biological target: ABL1 (UniProt P00519); assay: number of time points (of 5) at which kinase-Nluc abundance scored as decreased, DMSO-normalised (count); higher = more persistent destabilization
[10] = biological target: AKT1 (UniProt P31749); assay: as above

CN1CCN(c2ccc(NC(=O)c3ccc(C#N)o3)c(N3CCCCC3)c2)CC1 (10 µM)
kinase-Nluc reporter destabilization hit call [1]: inactive: 0 | kinase-Nluc reporter destabilization hit call [2]: inactive: 0 | kinase-Nluc reporter destabilization hit call [3]: inactive: 0 | kinase-Nluc reporter destabilization hit call [4]: inactive: 0 | kinase-Nluc reporter destabilization hit call [5]: inactive: 0 | kinase-Nluc reporter destabilization hit call [6]: inactive: 0 | kinase-Nluc reporter destabilization hit call [7]: inactive: 0 | kinase-Nluc reporter destabilization hit call [8]: inactive: 0 | number of time points [9]: 0 | number of time points [10]: 0

C[C@@H]1CN(CC(=O)Nc2ccc3c(c2)Cc2cccc(-c4cc(=O)cc(N5CCOCC5)o4)c2S3)C[C@H](C)O1 (2.5 µM)
kinase-Nluc reporter destabilization hit call [1]: inactive: 0 | kinase-Nluc reporter destabilization hit call [2]: inactive: 0 | kinase-Nluc reporter destabilization hit call [3]: inactive: 0 | kinase-Nluc reporter destabilization hit call [4]: inactive: 0 | kinase-Nluc reporter destabilization hit call [5]: inactive: 0 | kinase-Nluc reporter destabilization hit call [6]: inactive: 0 | kinase-Nluc reporter destabilization hit call [7]: inactive: 0 | kinase-Nluc reporter destabilization hit call [8]: inactive: 0 | number of time points [9]: 0 | number of time points [10]: 0

CCc1ccc(NC(=O)Nc2ccccc2)cc1 (10 µM)
kinase-Nluc reporter destabilization hit call [1]: inactive: 0 | kinase-Nluc reporter destabilization hit call [2]: inactive: 0 | kinase-Nluc reporter destabilization hit call [3]: inactive: 0 | kinase-Nluc reporter destabilization hit call [4]: inactive: 0 | kinase-Nluc reporter destabilization hit call [5]: inactive: 0 | kinase-Nluc reporter destabilization hit call [6]: inactive: 0 | kinase-Nluc reporter destabilization hit call [7]: inactive: 0 | kinase-Nluc reporter destabilization hit call [8]: inactive: 0 | number of time points [9]: 0 | number of time points [10]: 0

Cc1cc(=O)[nH]c(=S)[nH]1 [Methylthiouracil] (10 µM)
kinase-Nluc reporter destabilization hit call [1]: inactive: 0 | kinase-Nluc reporter destabilization hit call [2]: inactive: 0 | kinase-Nluc reporter destabilization hit call [3]: inactive: 0 | kinase-Nluc reporter destabilization hit call [4]: inactive: 0 | kinase-Nluc reporter destabilization hit call [5]: inactive: 0 | kinase-Nluc reporter destabilization hit call [6]: inactive: 0 | kinase-Nluc reporter destabilization hit call [7]: inactive: 0 | kinase-Nluc reporter destabilization hit call [8]: inactive: 0 | number of time points [9]: 0 | number of time points [10]: 0

Cc1nc(Nc2ncc(C(=O)Nc3c(C)cccc3Cl)s2)cc(N2CCN(C(=O)CCCCCCC(=O)N[C@H](C(=O)N3C[C@H](O)C[C@H]3C(=O)NCc3ccc(-c4scnc4C)cc3)C(C)(C)C)CC2)n1 (2.5 µM)
kinase-Nluc reporter destabilization hit call [1]: inactive: 0 | kinase-Nluc reporter destabilization hit call [2]: inactive: 0 | kinase-Nluc reporter destabilization hit call [3]: inactive: 0 | kinase-Nluc reporter destabilization hit call [4]: inactive: 0 | kinase-Nluc reporter destabilization hit call [5]: inactive: 0 | kinase-Nluc reporter destabilization hit call [6]: inactive: 0 | kinase-Nluc reporter destabilization hit call [7]: inactive: 0 | kinase-Nluc reporter destabilization hit call [8]: inactive: 0 | number of time points [9]: 3 | number of time points [10]: 0

O=C(c1ccc(NS(=O)(=O)c2cccc3cccnc23)cc1)N1CCN(CC2CC2)CC1 [Mitapivat] (10 µM)
kinase-Nluc reporter destabilization hit call [1]: inactive: 0 | kinase-Nluc reporter destabilization hit call [2]: inactive: 0 | kinase-Nluc reporter destabilization hit call [3]: inactive: 0 | kinase-Nluc reporter destabilization hit call [4]: inactive: 0 | kinase-Nluc reporter destabilization hit call [5]: inactive: 0 | kinase-Nluc reporter destabilization hit call [6]: inactive: 0 | kinase-Nluc reporter destabilization hit call [7]: inactive: 0 | kinase-Nluc reporter destabilization hit call [8]: inactive: 0 | number of time points [9]: 0 | number of time points [10]: 0

CC(=O)Nc1nc(C)c(-c2cc3c(c(S(C)(=O)=O)c2)C(=O)N([C@@H](C)C2CC2)C3)s1 (2.5 µM)
kinase-Nluc reporter destabilization hit call [1]: inactive: 0 | kinase-Nluc reporter destabilization hit call [2]: inactive: 0 | kinase-Nluc reporter destabilization hit call [3]: inactive: 0 | kinase-Nluc reporter destabilization hit call [4]: inactive: 0 | kinase-Nluc reporter destabilization hit call [5]: inactive: 0 | kinase-Nluc reporter destabilization hit call [6]: inactive: 0 | kinase-Nluc reporter destabilization hit call [7]: inactive: 0 | kinase-Nluc reporter destabilization hit call [8]: inactive: 0 | number of time points [9]: 0 | number of time points [10]: 0

CC(C)c1cnn2c(NCc3ccccc3)cc(NCCCCCCN)nc12 [BS-181 (hydrochloride)] (10 µM)
kinase-Nluc reporter destabilization hit call [1]: inactive: 0 | kinase-Nluc reporter destabilization hit call [2]: inactive: 0 | kinase-Nluc reporter destabilization hit call [3]: inactive: 0 | kinase-Nluc reporter destabilization hit call [4]: inactive: 0 | kinase-Nluc reporter destabilization hit call [5]: inactive: 0 | kinase-Nluc reporter destabilization hit call [6]: inactive: 0 | kinase-Nluc reporter destabilization hit call [7]: inactive: 0 | kinase-Nluc reporter destabilization hit call [8]: inactive: 0 | number of time points [9]: 0 | number of time points [10]: 0

Cc1nc(NC(=O)N2CCC[C@H]2C(N)=O)sc1-c1csc(C(C)(C)C)n1 (10 µM)
kinase-Nluc reporter destabilization hit call [1]: inactive: 0 | kinase-Nluc reporter destabilization hit call [2]: inactive: 0 | kinase-Nluc reporter destabilization hit call [3]: inactive: 0 | kinase-Nluc reporter destabilization hit call [4]: inactive: 0 | kinase-Nluc reporter destabilization hit call [5]: inactive: 0 | kinase-Nluc reporter destabilization hit call [6]: inactive: 0 | kinase-Nluc reporter destabilization hit call [7]: inactive: 0 | kinase-Nluc reporter destabilization hit call [8]: inactive: 0 | number of time points [9]: 0 | number of time points [10]: 0

CN(C)CCCn1cc(C2=C(c3c[nH]c4ccccc34)C(=O)NC2=O)c2ccccc21 [Bisindolylmaleimide I] (2.5 µM)
kinase-Nluc reporter destabilization hit call [1]: inactive: 0 | kinase-Nluc reporter destabilization hit call [2]: inactive: 0 | kinase-Nluc reporter destabilization hit call [3]: inactive: 0 | kinase-Nluc reporter destabilization hit call [4]: inactive: 0 | kinase-Nluc reporter destabilization hit call [5]: inactive: 0 | kinase-Nluc reporter destabilization hit call [6]: inactive: 0 | kinase-Nluc reporter destabilization hit call [7]: inactive: 0 | kinase-Nluc reporter destabilization hit call [8]: inactive: 0 | number of time points [9]: 0 | number of time points [10]: 0

CC(=O)Nc1nc(C)c(-c2ccc(Cl)c(S(=O)(=O)NCCO)c2)s1 (10 µM)
kinase-Nluc reporter destabilization hit call [1]: inactive: 0 | kinase-Nluc reporter destabilization hit call [2]: inactive: 0 | kinase-Nluc reporter destabilization hit call [3]: inactive: 0 | kinase-Nluc reporter destabilization hit call [4]: inactive: 0 | kinase-Nluc reporter destabilization hit call [5]: inactive: 0 | kinase-Nluc reporter destabilization hit call [6]: inactive: 0 | kinase-Nluc reporter destabilization hit call [7]: inactive: 0 | kinase-Nluc reporter destabilization hit call [8]: inactive: 0 | number of time points [9]: 0 | number of time points [10]: 0

C=CC(=O)Nc1cccc(Nc2nc(Nc3ccc(Oc4ccnc(C(=O)NC)c4)cc3)ncc2F)c1 (2.5 µM)
kinase-Nluc reporter destabilization hit call [1]: inactive: 0 | kinase-Nluc reporter destabilization hit call [2]: inactive: 0 | kinase-Nluc reporter destabilization hit call [3]: inactive: 0 | kinase-Nluc reporter destabilization hit call [4]: inactive: 0 | kinase-Nluc reporter destabilization hit call [5]: inactive: 0 | kinase-Nluc reporter destabilization hit call [6]: inactive: 0 | kinase-Nluc reporter destabilization hit call [7]: inactive: 0 | kinase-Nluc reporter destabilization hit call [8]: inactive: 0 | number of time points [9]: 0 | number of time points [10]: 0

Cn1cc(C2=C(c3c4n(c5ccccc35)CCC(CN)C4)C(=O)NC2=O)c2ccccc21 (stereo not given) [Bisindolylmaleimide X (hydrochloride)] (2.5 µM)
kinase-Nluc reporter destabilization hit call [1]: inactive: 0 | kinase-Nluc reporter destabilization hit call [2]: inactive: 0 | kinase-Nluc reporter destabilization hit call [3]: inactive: 0 | kinase-Nluc reporter destabilization hit call [4]: inactive: 0 | kinase-Nluc reporter destabilization hit call [5]: inactive: 0 | kinase-Nluc reporter destabilization hit call [6]: inactive: 0 | kinase-Nluc reporter destabilization hit call [7]: inactive: 0 | kinase-Nluc reporter destabilization hit call [8]: inactive: 0 | number of time points [9]: 0 | number of time points [10]: 0

C=CC(=O)Nc1cccc(Oc2nc(Nc3ccc(N4CCN(C)CC4)cc3)nc3ccsc23)c1 [Olmutinib] (2.5 µM)
kinase-Nluc reporter destabilization hit call [1]: inactive: 0 | kinase-Nluc reporter destabilization hit call [2]: inactive: 0 | kinase-Nluc reporter destabilization hit call [3]: inactive: 0 | kinase-Nluc reporter destabilization hit call [4]: inactive: 0 | kinase-Nluc reporter destabilization hit call [5]: inactive: 0 | kinase-Nluc reporter destabilization hit call [6]: inactive: 0 | kinase-Nluc reporter destabilization hit call [7]: inactive: 0 | kinase-Nluc reporter destabilization hit call [8]: inactive: 0 | number of time points [9]: 0 | number of time points [10]: 0
